Results are given in words; binding and its absence hold for the method and conditions named. In cells and extracts the contact can be indirect. These calls come from enrichment with a bait or labelling near it, and not all partners need be listed.
Molecular target: TRIM21 overexpressed in PANC1 (UniProt P19474)
Test: affinity purification with mass spectrometry; LC-MS/MS analysis on PANC1 cells overexpressing TRIM21, to identify proteins potentially interacting with TRIM21; how TRIM21 was isolated is not told

By UniProt entry, the sequences of proteins in these tests, tags left out.
UniProt P19474: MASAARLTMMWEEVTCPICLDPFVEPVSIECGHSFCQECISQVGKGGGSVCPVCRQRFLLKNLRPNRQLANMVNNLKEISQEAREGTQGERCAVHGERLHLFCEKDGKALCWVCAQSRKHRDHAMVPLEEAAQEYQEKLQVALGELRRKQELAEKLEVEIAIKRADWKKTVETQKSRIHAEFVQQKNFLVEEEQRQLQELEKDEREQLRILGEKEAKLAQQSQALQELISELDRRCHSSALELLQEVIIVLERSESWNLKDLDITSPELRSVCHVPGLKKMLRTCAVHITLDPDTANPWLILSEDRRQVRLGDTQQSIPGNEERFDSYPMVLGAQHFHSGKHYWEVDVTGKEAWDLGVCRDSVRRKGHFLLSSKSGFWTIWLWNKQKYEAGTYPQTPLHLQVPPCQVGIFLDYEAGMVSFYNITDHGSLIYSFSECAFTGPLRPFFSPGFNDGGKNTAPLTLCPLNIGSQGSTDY

B1: EPHX1 (endogenous) (enzyme, UniProt P07099 1-455)
chain: MWLEILLTSVLGFAIYWFISRDKEETLPLEDGWWGPGTRSAAREDDSIRPFKVETSDEEIHDLHQRIDKFRFTPPLEDSCFHYGFNSNYLKKVISYWRNEFDWKKQVEILNRYPHFKTKIEGLDIHFIHVKPPQLPAGHTPKPLLMVHGWPGSFYEFYKIIPLLTDPKNHGLSDEHVFEVICPSIPGYGFSEASSKKGFNSVATARIFYKLMLRLGFQEFYIQGGDWGSLICTNMAQLVPSHVKGLHLNMALVLSNFSTLTLLLGQRFGRFLGLTERDVELLYPVKEKVFYSLMRESGYMHIQCTKPDTVGSALNDSPVGLAAYILEKFSTWTNTEFRYLEDGGLERKFSLDDLLTNVMLYWTTGTIISSQRFYKENLGQGWMTQKHERMKVYVPTGFSAFPFELLHTPEKWVRFKYPKLISYSYMVRGGHFAAFEEPELLAQDIRKFLSVLERQ
- binding: binds
